Experimental data published in publication PMC3445516 (PLoS ONE, 2012).

System: 353 kinases
Assay: Ambit global kinase profiling, active site-directed competition binding assay, 353 kinases
Parameters: species or system human
Settings: 10 µM; for number of protein kinases at competition level 51–90% / number of protein kinases at competition level 91–98% / number of protein kinases at competition level 99–100% / share of total kinases tested inhibited at over 50%: 353 kinases; for number of kinases whose binding activity was inhibited at over 50%: out of 353 kinases

Structure (SMILES) | number of protein kinases at competition level 51–90% | number of protein kinases at competition level 91–98% | number of protein kinases at competition level 99–100% | share of total kinases tested inhibited at over 50% [%] | number of kinases whose binding activity was inhibited at over 50%
CC(O)CNc1cc(-c2[nH]c3cccnc3c2-c2ccc(F)cc2)ccn1 (stereo not shown) [Compound 140] | 23 | 12 | 8 | 12 | 43
Fc1ccc(-c2c(-c3ccncc3)[nH]c3nccnc23)cc1 [Compound 122] | 59 | 47 | 17 | 35 | 123
